# Reference: PubChem BioAssay AID540276 (National Center for Advancing Translational Sciences (NCATS), 2011)
# Among all 300,000 compounds or so, about 5,400 (1.8%) were called active. The shares of active, inactive and inconclusive entries below differ from those in the screen. Calls come from the whole dose curve; tested in HEK293 cells. A potency beside an inconclusive call is a rough fit, not a confirmed value.
# Assay: qHTS for inhibitors of binding or entry into cells for Marburg Virus
# Details: Marburg virus pseudotyped entry inhibition, cell reporter; series mostly up to 37.8 µM
# Potency is the fitted concentration of half-maximal effect.
row,SMILES,Potency
1,O=C1CSC2=NCN(c3ccc4c(c3)OCO4)CN12,inactive
2,CCS(=O)(=O)n1nc(-c2cccnc2)nc1NCc1ccc(F)cc1,"inconclusive: 6.31 µM [inhibitor, full curve, poor fit]"
3,COc1cccc(=O)c2c(C)n(C)c(C)c12,inactive
4,CC(C)C1C(C#N)=C(N)Oc2n[nH]c(-c3ccccc3)c21 (centres undefined),"inconclusive: 20 µM [activator, single point]"
5,O=C(CC(c1ccccc1)c1cc(Br)ccc1O)N1CCCC1 (centres undefined),inactive
6,c1ccc2c(c1)nc1n2CCN1CCN1CCCC1,inactive
7,COC1C=CC=C(C)C(=O)NC2=CC(=O)C(N)=C(CC(C)CC(OC)C(O)C(C)C=C(C)C1OC(N)=O)C2=O (centres undefined),active: 0.199 µM
8,CN(C)c1ccc(C(C(=O)NCC2CCCO2)N(Cc2ccco2)C(=O)c2snc(C(N)=O)c2N)cc1 (centres undefined),"inconclusive: 14.1 µM [inhibitor, single point]"
9,COc1ccc(C2CCCN2C(=S)Nc2cccc(Cl)c2C)cc1OC (centres undefined),"inconclusive: 11.2 µM [inhibitor, partial curve, poor fit]"
10,Cc1ccc(OC(=S)Nc2ccc(O)cc2)cc1,"inconclusive: 35.5 µM [activator, single point]"
11,Cc1csc(NC(=O)C(F)(F)F)n1,"inconclusive: 0.501 µM [activator, single point]"
12,O=C(c1cc(C(=O)NCc2ccccc2)c(=O)n(Cc2ccccc2)c1)c1cc(Cl)ccc1O,"inconclusive: 35.5 µM [inhibitor, single point]"
13,O=S(=O)(c1ccc(Br)s1)N1CCN(c2ccnc3cc(Cl)ccc23)CC1,"inconclusive: 35.5 µM [inhibitor, single point]"
14,O=C(NCCc1ccc(F)cc1)c1ccc2c(=O)n3c(nc2c1)CCC3,"inconclusive: 35.5 µM [inhibitor, single point]"
15,O=C(Nc1nc2nc(-c3ccccc3)cc(-c3ccccc3)n2n1)c1ccco1,"inconclusive: 35.5 µM [inhibitor, single point]"
16,Cc1ccc(CCNC(=O)c2coc3nc4ccccc4nc23)cc1,inactive
17,Cc1ccc(-c2cc(NC(=O)c3ccccc3Cl)on2)cc1,inactive
18,COCc1[nH]nc2c1C(c1ccc(F)cc1F)C(C#N)=C(N)O2 (centres undefined),inactive
19,COc1ccc(/C=N/NC(=O)c2ccccc2OC)cc1COc1ccc(C)cc1,"inconclusive: 1.78 µM [inhibitor, partial curve]"
20,COc1ccccc1CNC(=O)CN1C(=O)NC2(CCC(C)CC2)C1=O (centres undefined),inactive
21,CCC1(c2ccccc2)NC(=O)N(CC(=O)Nc2ccc(S(=O)(=O)NC3=NCCCCC3)cc2)C1=O (centres undefined),"inconclusive: 12.6 µM [activator, single point]"
22,COc1ccc(CNC(=S)NCc2ccc(Cl)cc2)cc1OC,inactive
23,O=C(NCCCN1CCOCC1)c1cn(-c2ccccc2)nc1-c1ccc(Br)cc1,"inconclusive: 2.82 µM [inhibitor, single point]"

row,SMILES,Potency
1,COc1cc(OC)c(OC)cc1CNC(=O)c1ccc(S(=O)(=O)N2CCCCC2)cc1,"inconclusive: 12.6 µM [inhibitor, partial curve, poor fit]"
2,C=CCNC(=O)c1ccc(-c2nc(-c3ccc(Cl)c(Cl)c3)cs2)cc1,"inconclusive: 23.1 µM [inhibitor, partial curve, poor fit]"
3,CCOC(=O)c1c(NC(=O)COC(=O)c2ccc(C)s2)sc2c1CC(C)(C)NC2(C)C,"inconclusive: 35.5 µM [inhibitor, single point]"
4,O=C(N1CCCC1)n1c(Cc2ccccc2)nc2ccccc21,"inconclusive: 0.164 µM [inhibitor, full curve, poor fit]"
5,CCOc1ccc(NS(=O)(=O)c2ccc(C(=O)N(C)CCc3ccc(OC)c(OC)c3)cc2)cc1,"inconclusive: 25.1 µM [inhibitor, partial curve, poor fit]"
6,CCOC(=O)N1CCN(C(=O)c2ccc3c(c2)N(Cc2ccccc2F)C(=O)c2ccccc2S3=O)CC1 (centres undefined),inactive
7,O=C(COc1ccccc1Cl)N1CCc2ccccc21,"inconclusive: 0.562 µM [activator, full curve, poor fit]"
8,COc1cccc(C(=O)NNc2c3ccccc3nc3ccccc23)c1,inactive
9,CCc1ccccc1Nc1cc(C(=O)NCc2ccc(C)cc2)c2ccccc2n1,inactive
10,Cc1cc(Nc2ccccc2)nc(N)n1,inactive
11,CCCNC(=O)CSCc1nc(-c2ccc(SC)cc2)oc1C,inactive
12,Cc1nnc(NC(=O)C(c2ccccc2)c2ccccc2)s1,inactive
13,CCN(CC)S(=O)(=O)c1ccc(N2CCN(c3ccccc3O)CC2)nc1,"inconclusive: 22.4 µM [inhibitor, partial curve, poor fit]"
14,COc1cc(C(=O)NCC(=O)N/N=C/c2ccc(-c3ccc([N+](=O)[O-])cc3)o2)cc(OC)c1OC,"inconclusive: 32.6 µM [inhibitor, single point]"
15,O=C(NC1CCN(C(=O)N2c3ccccc3Sc3ccccc32)CC1)c1ccccc1Cl,active: 16.4 µM
16,COc1ccc2cc(CN(Cc3ccco3)C(=S)NCC3CCCO3)c(=O)[nH]c2c1 (centres undefined),"inconclusive: 0.891 µM [inhibitor, full curve, poor fit]"
17,Cn1ccc2c(-c3ccc(F)cc3)cc3c(c21)C1CCC3C1 (centres undefined),"inconclusive: 0.0031 µM [inhibitor, full curve, poor fit]"
18,O=C(Cc1ccc(Br)cc1)N/N=C/c1ccc(-c2cccc(C(=O)O)c2)o1,inactive
19,Cc1ccc(-n2c(O)c(C=NCCCn3ccnc3)c(=O)[nH]c2=O)cc1,"inconclusive: 3.16 µM [inhibitor, single point]"
20,COc1ccc(/C=C/C2=NC(=C\N(C)C)/C(=O)O2)cc1,"inconclusive: 15.8 µM [activator, partial curve, poor fit]"
21,Cc1ccc(S(=O)(=O)NCC(=O)NCC(=O)NCCc2ccccc2F)cc1C,inactive
22,O=C(COC(=O)C12CC3CC(CC(C3)C1)C2)Nc1ccc2[nH]c(=O)[nH]c2c1,inactive
23,O=C(CN(CC1CCCO1)C(=O)CNS(=O)(=O)c1ccc(F)cc1)NCc1ccc(F)cc1 (centres undefined),inactive

row,SMILES,Potency
1,CSc1nc(C)cc(Oc2ccc(=O)[nH]n2)n1,inactive
2,Cc1[nH]n(-c2ccc(Cl)c(Cl)c2)c(=O)c1CCO,"inconclusive: 16.4 µM [inhibitor, single point]"
3,COc1cccc(CN(C)C(=O)CCc2nnc(-c3ccsc3)o2)c1,"inconclusive: 15.8 µM [activator, single point]"
4,CCOc1ncccc1C(=O)OCc1ccc(C(=O)OC)cc1,"inconclusive: 10 µM [inhibitor, partial curve]"
5,COc1ccc(F)cc1S(=O)(=O)Nc1ccc(C)cc1,"inconclusive: 20 µM [inhibitor, single point]"
6,CC(C)Cn1c(SCC(=O)NC(=O)NC2CCCC2)nc2ccccc21,"inconclusive: 8.2 µM [inhibitor, partial curve]"
7,Cc1ccc(C(NC(=O)C2CCCCC2)c2c(O)ccc3ccccc23)cc1 (centres undefined),"inconclusive: 25.9 µM [inhibitor, single point]"
8,O=C(O)c1cc(NC(=O)c2ccc3c(c2)C(=O)N(Cc2ccccc2)C3=O)cc(C(=O)O)c1,"inconclusive: 12.6 µM [activator, partial curve, poor fit]"
9,COc1ccc(NC2=Nc3ccccc3CC2)cc1,"inconclusive: 18.3 µM [inhibitor, partial curve, poor fit]"
10,COc1ccc(/C=N/n2c(=O)[nH]c3c([nH]c4ccc(Cl)cc43)c2=O)cc1CN1CCCCC1,"inconclusive: 4.47 µM [inhibitor, partial curve, poor fit]"
11,Cn1nc(-c2ccccc2)cc1NC(=O)Nc1ccccc1F,inactive
12,Cc1sc2ncnc(NCC(C)(C)N3CCOCC3)c2c1C,"inconclusive: 10 µM [inhibitor, partial curve]"
13,CCCN1CCN(CCCNC(=O)c2cc3c(Cl)nc4ccccc4c3s2)CC1,"inconclusive: 10 µM [inhibitor, partial curve, poor fit]"
14,CCOC(=O)C1(C)/C(=N/Nc2ccccc2OC)C(=O)C(=O)N1c1ccccc1 (centres undefined),"inconclusive: 35.5 µM [inhibitor, partial curve, poor fit]"
15,CC(C)OC(=O)CSc1nc2cc3c(cc2cc1C#N)OCO3,"inconclusive: 2.91 µM [activator, full curve, poor fit]"
16,COc1ccc(C(=O)/C=C/C(=O)N(Cc2ccc(F)cc2)C(C(=O)NC2CCCCC2)c2ccncc2)c(O)c1 (centres undefined),"inconclusive: 12.6 µM [inhibitor, partial curve, poor fit]"
17,Cc1nnc(SCC(=O)NC(=O)NC(C)(C)C)s1,"inconclusive: 1.78 µM [activator, single point]"
18,CNC(=S)NNC(=O)c1cccc(N(C)C)c1,"inconclusive: 6.31 µM [activator, single point]"
19,COc1ccc(C2CC(c3ccc(Br)cc3)Nc3nc(N)nn32)cc1 (centres undefined),"inconclusive: 0.0046 µM [inhibitor, full curve, poor fit]"
20,O=C(c1ccccc1)c1nn(-c2ccccc2)c2nnc(Cc3ccccc3)c(=O)n12,"inconclusive: 7.3 µM [inhibitor, partial curve, poor fit]"
21,O=C(c1ccccc1)c1cc([N+](=O)[O-])ccc1N1CCOCC1,"inconclusive: 1 µM [inhibitor, full curve, poor fit]"
22,COc1ccc(NC(=O)C2CCCO2)c(OC)c1 (centres undefined),inactive
23,COc1ccc(OP(=O)(Nc2ccccc2)Nc2ccccc2)cc1,"inconclusive: 14.6 µM [inhibitor, partial curve]"

# A second format for some results above:
row | SMILES | Potency
20 | COc1ccccc1CNC(=O)CN1C(=O)NC2(CCC(C)CC2)C1=O (centres undefined) | inactive
21 | CCC1(c2ccccc2)NC(=O)N(CC(=O)Nc2ccc(S(=O)(=O)NC3=NCCCCC3)cc2)C1=O (centres undefined) | inconclusive: 12.6 µM [activator, single point]
22 | COc1ccc(CNC(=S)NCc2ccc(Cl)cc2)cc1OC | inactive
23 | O=C(NCCCN1CCOCC1)c1cn(-c2ccccc2)nc1-c1ccc(Br)cc1 | inconclusive: 2.82 µM [inhibitor, single point]
1 | COc1cc(OC)c(OC)cc1CNC(=O)c1ccc(S(=O)(=O)N2CCCCC2)cc1 | inconclusive: 12.6 µM [inhibitor, partial curve, poor fit]
2 | C=CCNC(=O)c1ccc(-c2nc(-c3ccc(Cl)c(Cl)c3)cs2)cc1 | inconclusive: 23.1 µM [inhibitor, partial curve, poor fit]
3 | CCOC(=O)c1c(NC(=O)COC(=O)c2ccc(C)s2)sc2c1CC(C)(C)NC2(C)C | inconclusive: 35.5 µM [inhibitor, single point]
4 | O=C(N1CCCC1)n1c(Cc2ccccc2)nc2ccccc21 | inconclusive: 0.164 µM [inhibitor, full curve, poor fit]
5 | CCOc1ccc(NS(=O)(=O)c2ccc(C(=O)N(C)CCc3ccc(OC)c(OC)c3)cc2)cc1 | inconclusive: 25.1 µM [inhibitor, partial curve, poor fit]
6 | CCOC(=O)N1CCN(C(=O)c2ccc3c(c2)N(Cc2ccccc2F)C(=O)c2ccccc2S3=O)CC1 (centres undefined) | inactive
7 | O=C(COc1ccccc1Cl)N1CCc2ccccc21 | inconclusive: 0.562 µM [activator, full curve, poor fit]
8 | COc1cccc(C(=O)NNc2c3ccccc3nc3ccccc23)c1 | inactive
9 | CCc1ccccc1Nc1cc(C(=O)NCc2ccc(C)cc2)c2ccccc2n1 | inactive
10 | Cc1cc(Nc2ccccc2)nc(N)n1 | inactive
